Sequences of proteins named here, by UniProt entry; tags and fusion partners are left off. Residues count along the entry.
UniProt Q16539, 2-360: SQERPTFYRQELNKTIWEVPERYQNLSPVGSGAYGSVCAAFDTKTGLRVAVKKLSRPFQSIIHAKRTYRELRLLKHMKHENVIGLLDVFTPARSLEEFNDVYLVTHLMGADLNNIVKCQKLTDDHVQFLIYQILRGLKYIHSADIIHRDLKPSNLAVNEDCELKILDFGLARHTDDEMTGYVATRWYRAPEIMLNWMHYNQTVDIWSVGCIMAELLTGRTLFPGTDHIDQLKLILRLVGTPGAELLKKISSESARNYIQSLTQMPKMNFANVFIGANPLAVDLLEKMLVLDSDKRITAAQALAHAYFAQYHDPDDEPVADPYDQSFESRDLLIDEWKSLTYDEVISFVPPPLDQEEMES
UniProt P02769, 25-607: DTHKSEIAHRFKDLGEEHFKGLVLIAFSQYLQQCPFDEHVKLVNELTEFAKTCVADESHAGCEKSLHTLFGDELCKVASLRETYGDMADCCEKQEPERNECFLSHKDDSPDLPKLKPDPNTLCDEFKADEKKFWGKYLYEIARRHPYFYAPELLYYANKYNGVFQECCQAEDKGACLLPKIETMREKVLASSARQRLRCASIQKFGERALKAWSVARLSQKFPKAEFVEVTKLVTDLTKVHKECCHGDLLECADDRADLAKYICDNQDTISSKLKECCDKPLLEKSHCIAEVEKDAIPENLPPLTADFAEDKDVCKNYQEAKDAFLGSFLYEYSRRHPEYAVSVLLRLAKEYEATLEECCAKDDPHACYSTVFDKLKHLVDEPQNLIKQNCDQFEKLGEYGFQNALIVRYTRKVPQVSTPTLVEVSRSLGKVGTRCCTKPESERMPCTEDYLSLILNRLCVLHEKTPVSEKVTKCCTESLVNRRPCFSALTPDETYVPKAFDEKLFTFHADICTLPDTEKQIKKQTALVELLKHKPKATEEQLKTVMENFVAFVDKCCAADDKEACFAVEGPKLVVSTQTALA

According to patent US20020102568:

Legend:
p38 MAPK = p38 MAPK (UniProt Q16539); test: enzyme reaction in vitro; conditions: P38 did not activate the allozyme; variant of ERK2 aptamer (RNA sensor component); dose not given here
JNK = test: enzyme reaction in vitro; conditions: JNK did not activate the allozyme; variant of ERK2 aptamer (RNA sensor component); dose not given here
[1] = molecular target: bovine serum albumin (BSA) (Bos taurus) (UniProt P02769); test: enzyme reaction in vitro; conditions: BSA in place of ERK2 gave no activation; variant of ERK2 aptamer (RNA sensor component)
[2] = molecular target: ERK2, phosphorylated (activated) (UniProt P28482); test: enzyme reaction in vitro; conditions: purified recombinant protein; protein details: phosphorylated form; variant of ERK2 aptamer (RNA sensor component); dose not given here
[3] = molecular target: ERK2 (unactivated, unphosphorylated) (UniProt P28482); test: binding assay; conditions: CITED; affinity of the parental RNA sensor component stated without experimental detail; sequence assigned from listing (Erk Modulated Sensor Component); purified recombinant protein

Row | Sequence | functional effect of the aptamer (p38 MAPK) | functional effect of the aptamer (JNK) | functional effect of the aptamer [1] | functional effect of the aptamer [2] | Kd [3] [ng/mL]
1 | GCGUGACCUGAUGAGUCACGCUAAGGAGGAUUUCCGAAAGCGGCUACGGUCCGCCAGUGUUACGAAACGUUCCC [ERK2-responsive hammerhead allozyme] | not active | not active | not active | not active | 
2 | GGAUAAGGAGGAUUUCCGAAAGCGGCUACGGUCCGCCAUCC [ERK2 aptamer (RNA sensor component)] |  |  |  |  | 8

For some assays here: Negatives hold for the conditions tested. For some assays here: The exact form of at least one protein or probe is not confirmed.
